{"source": "patent US7153826B2", "about": "“Treatment of rosacea” (Seatek Marine Biotechnology, Inc., priority 2000, dated 2006)", "origin": "cited, not measured here", "test_system": "rosacea", "conditions": "cited from earlier work", "note": "Where two headings read alike, the source gives them in different places. At least one compound was matched to its structure with a doubt left."}
{"smiles": "CN(C)[C@@H]1C(O)=C(C(N)=O)C(=O)[C@@]2(O)C(O)=C3C(=O)c4c(O)cccc4[C@@](C)(O)[C@H]3C[C@@H]12", "note": "[tetracycline]", "values": [{"measurement": "effectiveness in rosacea", "setting": "administered systemically", "value": "somewhat effective"}, {"measurement": "effectiveness in rosacea", "setting": "applied topically", "value": "ineffective"}]}
